Laboratory results: the supplement of paper PMC10849652
Some of the results follow.

Sequences of proteins named here, by UniProt entry; tags and fusion partners are left off. A change or cut given only in a name is not applied to a line headed by its entry.
UniProt P86791: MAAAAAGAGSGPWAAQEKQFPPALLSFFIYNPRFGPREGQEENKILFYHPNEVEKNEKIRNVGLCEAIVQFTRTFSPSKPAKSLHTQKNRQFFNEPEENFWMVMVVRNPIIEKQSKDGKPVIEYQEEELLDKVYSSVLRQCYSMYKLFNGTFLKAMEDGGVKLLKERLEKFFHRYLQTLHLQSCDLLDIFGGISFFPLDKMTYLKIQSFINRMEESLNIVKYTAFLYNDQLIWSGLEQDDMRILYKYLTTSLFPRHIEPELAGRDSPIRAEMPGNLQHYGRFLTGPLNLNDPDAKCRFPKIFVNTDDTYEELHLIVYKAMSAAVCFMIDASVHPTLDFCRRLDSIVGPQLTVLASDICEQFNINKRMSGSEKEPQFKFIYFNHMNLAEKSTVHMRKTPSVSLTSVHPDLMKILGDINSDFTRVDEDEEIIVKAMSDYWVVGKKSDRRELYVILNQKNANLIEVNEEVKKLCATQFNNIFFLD
UniProt P13987: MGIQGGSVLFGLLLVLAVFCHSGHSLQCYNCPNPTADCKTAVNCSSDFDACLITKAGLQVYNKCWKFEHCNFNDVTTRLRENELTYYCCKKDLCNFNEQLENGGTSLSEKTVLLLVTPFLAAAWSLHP
UniProt Q13185: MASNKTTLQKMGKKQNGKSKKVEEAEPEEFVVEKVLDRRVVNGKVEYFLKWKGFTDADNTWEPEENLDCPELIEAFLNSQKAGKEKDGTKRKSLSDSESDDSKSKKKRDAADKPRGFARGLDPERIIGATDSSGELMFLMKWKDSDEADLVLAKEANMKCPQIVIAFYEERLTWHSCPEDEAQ
UniProt P50991: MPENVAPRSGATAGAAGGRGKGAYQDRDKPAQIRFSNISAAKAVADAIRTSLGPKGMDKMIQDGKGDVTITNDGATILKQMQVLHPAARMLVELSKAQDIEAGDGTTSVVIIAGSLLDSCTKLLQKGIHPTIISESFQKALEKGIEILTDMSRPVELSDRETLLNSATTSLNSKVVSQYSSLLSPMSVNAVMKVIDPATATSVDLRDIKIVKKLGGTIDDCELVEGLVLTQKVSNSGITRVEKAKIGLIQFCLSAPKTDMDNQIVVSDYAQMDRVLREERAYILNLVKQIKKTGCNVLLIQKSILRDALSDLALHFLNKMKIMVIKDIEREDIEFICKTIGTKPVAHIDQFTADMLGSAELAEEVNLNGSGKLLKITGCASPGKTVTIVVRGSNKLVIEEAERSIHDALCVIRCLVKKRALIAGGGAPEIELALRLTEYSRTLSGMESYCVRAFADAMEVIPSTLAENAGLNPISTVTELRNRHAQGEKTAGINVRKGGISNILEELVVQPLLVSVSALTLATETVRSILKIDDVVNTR
UniProt Q8N4S0: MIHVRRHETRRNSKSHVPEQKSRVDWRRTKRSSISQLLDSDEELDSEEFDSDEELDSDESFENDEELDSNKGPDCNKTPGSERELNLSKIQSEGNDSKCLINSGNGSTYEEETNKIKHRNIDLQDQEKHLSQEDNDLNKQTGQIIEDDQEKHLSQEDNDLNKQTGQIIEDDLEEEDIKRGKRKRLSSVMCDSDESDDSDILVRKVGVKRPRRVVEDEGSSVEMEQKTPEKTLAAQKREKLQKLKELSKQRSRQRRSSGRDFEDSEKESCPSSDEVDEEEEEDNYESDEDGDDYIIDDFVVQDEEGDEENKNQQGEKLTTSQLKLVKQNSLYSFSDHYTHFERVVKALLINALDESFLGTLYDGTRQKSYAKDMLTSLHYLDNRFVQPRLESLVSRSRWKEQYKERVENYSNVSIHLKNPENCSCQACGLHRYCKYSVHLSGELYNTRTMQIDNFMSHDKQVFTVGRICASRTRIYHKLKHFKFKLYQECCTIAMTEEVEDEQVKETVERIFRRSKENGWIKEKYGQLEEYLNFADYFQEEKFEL
UniProt Q75N03: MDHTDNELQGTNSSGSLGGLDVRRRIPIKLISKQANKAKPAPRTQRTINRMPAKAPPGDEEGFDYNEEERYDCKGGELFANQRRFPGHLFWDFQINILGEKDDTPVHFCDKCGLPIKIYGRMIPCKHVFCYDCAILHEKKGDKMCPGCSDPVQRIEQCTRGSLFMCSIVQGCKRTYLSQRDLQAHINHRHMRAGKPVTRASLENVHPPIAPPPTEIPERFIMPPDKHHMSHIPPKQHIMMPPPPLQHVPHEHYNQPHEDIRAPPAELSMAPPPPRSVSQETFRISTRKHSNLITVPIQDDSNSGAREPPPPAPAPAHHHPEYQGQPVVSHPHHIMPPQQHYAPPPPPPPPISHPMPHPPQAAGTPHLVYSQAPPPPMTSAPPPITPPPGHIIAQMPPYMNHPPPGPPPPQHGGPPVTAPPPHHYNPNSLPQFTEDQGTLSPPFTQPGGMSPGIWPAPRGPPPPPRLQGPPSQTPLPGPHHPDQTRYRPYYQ
UniProt Q7Z3E2: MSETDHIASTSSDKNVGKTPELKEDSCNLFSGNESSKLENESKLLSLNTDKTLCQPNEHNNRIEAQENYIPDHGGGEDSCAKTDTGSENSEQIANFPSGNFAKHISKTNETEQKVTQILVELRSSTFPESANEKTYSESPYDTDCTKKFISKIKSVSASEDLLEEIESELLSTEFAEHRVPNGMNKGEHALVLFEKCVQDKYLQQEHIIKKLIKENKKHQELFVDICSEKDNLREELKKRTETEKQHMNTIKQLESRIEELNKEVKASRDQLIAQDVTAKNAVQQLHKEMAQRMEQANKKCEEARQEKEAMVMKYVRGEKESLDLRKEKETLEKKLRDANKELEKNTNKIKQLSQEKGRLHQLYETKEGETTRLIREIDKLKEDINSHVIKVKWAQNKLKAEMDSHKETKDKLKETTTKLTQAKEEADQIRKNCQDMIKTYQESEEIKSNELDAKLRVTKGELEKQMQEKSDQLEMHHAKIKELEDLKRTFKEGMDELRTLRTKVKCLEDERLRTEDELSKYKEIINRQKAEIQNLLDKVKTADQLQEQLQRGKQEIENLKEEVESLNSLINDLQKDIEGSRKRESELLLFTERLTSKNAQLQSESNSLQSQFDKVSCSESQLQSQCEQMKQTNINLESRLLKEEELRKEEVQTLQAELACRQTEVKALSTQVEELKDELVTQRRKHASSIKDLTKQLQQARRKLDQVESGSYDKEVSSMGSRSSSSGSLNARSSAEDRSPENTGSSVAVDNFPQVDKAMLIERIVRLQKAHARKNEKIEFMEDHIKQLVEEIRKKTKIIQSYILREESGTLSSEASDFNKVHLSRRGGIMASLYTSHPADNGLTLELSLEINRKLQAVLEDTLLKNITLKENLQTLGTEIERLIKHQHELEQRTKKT
UniProt P55210: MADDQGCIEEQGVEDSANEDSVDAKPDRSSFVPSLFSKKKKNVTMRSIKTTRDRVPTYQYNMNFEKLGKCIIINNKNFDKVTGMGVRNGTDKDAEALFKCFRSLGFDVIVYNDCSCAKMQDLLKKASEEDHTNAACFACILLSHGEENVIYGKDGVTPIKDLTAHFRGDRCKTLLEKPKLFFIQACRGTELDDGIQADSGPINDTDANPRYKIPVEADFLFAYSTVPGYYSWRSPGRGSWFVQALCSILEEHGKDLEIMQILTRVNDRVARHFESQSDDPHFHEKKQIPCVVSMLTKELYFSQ
UniProt P33681, whole entry, looked up: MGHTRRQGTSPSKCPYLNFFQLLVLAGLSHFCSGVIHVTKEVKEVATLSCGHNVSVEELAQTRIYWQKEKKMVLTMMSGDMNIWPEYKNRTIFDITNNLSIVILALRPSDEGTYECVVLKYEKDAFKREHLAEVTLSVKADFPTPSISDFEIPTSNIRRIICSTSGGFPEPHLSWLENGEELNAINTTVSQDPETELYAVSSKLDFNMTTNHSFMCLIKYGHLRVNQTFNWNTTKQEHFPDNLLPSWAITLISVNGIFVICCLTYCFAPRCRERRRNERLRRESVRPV
UniProt Q6P1N0: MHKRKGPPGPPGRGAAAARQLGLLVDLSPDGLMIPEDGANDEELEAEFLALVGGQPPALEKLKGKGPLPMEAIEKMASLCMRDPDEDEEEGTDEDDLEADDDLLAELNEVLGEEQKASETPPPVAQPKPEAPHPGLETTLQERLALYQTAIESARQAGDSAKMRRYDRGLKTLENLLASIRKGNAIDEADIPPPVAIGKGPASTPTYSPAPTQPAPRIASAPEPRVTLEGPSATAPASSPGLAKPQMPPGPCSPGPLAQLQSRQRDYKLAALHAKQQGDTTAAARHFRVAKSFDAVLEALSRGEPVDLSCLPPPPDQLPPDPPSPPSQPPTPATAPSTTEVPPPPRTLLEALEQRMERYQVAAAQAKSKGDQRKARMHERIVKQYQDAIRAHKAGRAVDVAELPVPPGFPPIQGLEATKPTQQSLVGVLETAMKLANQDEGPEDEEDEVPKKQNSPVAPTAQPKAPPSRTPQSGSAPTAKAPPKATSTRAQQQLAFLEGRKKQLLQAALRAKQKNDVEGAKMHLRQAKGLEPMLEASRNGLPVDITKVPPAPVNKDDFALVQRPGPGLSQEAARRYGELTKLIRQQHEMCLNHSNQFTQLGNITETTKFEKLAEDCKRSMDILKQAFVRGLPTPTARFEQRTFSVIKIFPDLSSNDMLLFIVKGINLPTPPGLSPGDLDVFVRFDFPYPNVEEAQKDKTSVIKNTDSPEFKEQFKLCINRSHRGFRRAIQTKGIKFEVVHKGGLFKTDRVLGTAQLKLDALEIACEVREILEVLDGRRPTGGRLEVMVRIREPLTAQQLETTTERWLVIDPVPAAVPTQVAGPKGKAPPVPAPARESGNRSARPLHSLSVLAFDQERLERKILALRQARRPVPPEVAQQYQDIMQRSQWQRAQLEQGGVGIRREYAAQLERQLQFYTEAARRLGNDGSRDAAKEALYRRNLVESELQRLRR
UniProt P30281: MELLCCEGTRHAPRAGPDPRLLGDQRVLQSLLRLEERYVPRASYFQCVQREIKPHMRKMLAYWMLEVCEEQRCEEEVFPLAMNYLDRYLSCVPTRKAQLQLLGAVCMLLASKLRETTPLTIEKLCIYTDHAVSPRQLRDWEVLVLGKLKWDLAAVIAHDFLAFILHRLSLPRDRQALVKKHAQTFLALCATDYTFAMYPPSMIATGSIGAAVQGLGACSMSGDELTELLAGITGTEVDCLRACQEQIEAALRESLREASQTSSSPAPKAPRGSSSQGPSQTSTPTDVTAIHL
UniProt P08174: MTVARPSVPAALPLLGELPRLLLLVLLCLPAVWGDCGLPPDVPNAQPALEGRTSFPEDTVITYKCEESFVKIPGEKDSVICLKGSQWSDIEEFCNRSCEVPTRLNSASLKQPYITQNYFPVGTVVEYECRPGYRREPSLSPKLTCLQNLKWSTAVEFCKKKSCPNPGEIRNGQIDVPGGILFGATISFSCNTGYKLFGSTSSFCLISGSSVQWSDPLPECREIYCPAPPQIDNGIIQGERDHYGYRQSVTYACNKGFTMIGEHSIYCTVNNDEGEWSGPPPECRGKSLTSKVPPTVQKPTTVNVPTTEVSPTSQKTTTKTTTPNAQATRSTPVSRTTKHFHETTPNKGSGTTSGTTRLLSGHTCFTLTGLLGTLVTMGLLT
UniProt O60563, whole entry, looked up: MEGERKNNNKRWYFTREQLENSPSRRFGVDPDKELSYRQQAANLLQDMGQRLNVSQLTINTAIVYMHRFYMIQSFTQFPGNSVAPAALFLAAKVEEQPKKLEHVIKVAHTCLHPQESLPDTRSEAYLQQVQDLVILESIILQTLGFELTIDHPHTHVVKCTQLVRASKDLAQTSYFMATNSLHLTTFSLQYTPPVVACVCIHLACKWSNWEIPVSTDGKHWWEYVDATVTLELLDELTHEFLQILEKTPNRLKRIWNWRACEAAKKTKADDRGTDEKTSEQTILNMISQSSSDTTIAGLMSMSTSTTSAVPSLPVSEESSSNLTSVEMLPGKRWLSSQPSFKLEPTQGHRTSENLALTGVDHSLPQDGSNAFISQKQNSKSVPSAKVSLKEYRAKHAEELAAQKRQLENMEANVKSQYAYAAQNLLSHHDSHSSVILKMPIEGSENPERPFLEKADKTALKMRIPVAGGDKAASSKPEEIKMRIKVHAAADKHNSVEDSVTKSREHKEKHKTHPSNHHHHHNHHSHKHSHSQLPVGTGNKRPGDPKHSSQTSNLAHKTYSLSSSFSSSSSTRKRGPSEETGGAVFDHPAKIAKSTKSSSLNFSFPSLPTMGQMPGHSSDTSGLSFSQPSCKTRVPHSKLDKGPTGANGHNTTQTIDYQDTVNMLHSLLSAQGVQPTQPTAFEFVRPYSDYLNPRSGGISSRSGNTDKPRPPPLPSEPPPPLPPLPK
UniProt P19256, whole entry, looked up: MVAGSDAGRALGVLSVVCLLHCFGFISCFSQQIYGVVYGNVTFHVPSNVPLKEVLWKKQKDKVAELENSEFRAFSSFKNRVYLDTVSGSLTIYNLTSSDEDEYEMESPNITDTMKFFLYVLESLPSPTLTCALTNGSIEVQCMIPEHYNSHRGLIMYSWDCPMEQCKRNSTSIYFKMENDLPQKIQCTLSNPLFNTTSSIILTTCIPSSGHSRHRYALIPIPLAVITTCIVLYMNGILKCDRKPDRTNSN

Legend:
Assay in all cases: log2 fold change, soluble protein after heating vs DMSO (PISA); higher = thermal stabilisation; K562 lysate, 10 uM; active = over 0.2 and 3.5 SD of the protein, either way, in both replicates (recomputed)
[1] = compound: CS(=O)(=O)CCNCc1ccc(-c2ccc3ncnc(Nc4ccc(OCc5cccc(F)c5)c(Cl)c4)c3c2)o1 [lapatinib]
Outline: (§1)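 Pellets of K562 cells were dounce-homogenised in PBS pH 7.4 with 1 mM MgCl2, and the crude extract was held at 1 mg/mL protein for a 30 min treatment with 10 μM compound. Aliquots were heated for 3 min over 48°C-58°C and pooled before NP-40 was added to 0.5% at 4°C. The supernatant from 21,000xg for 90 min was quantified by TMTpro 16plex LC-MS/MS with channel sums equalised. Values are reported from duplicates as log-two fold change in thermal stability relative to solvent controls.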

[2] = compound: CS(=O)(=O)N1CCN(Cc2cc3nc(-c4cccc5[nH]ncc45)nc(N4CCOCC4)c3s2)CC1 [pictilisib]
Outline: as §1

[3] = compound: C[C@@H](Oc1cc(-c2cnn(C3CCNCC3)c2)cnc1N)c1c(Cl)ccc(F)c1Cl [crizotinib]
Outline: as §1

[4] = compound: C[C@H](C1=CC=C(C=C1)C(=O)NC2=C3C=CNC3=NC=C2)N
Outline: as §1

[5] = compound: C[C@H](Nc1ncnc2nc[nH]c12)c1cc2cccc(Cl)c2c(=O)n1-c1ccccc1 [duvelisib]
Outline: as §1

[6] = compound: Cc1cc(Nc2cc(CN3CCOCC3)c3nc(C)c(Cc4ccc(Cl)cc4F)n3n2)n[nH]1 [gandotinib]
Outline: as §1

[7] = compound: Cc1cc(Nc2cc(N3CCN(C)CC3)nc(Sc3ccc(NC(=O)C4CC4)cc3)n2)n[nH]1 [tozasertib]
Outline: as §1

[8] = compound: Cc1ccc(-n2nc(C(C)(C)C)cc2NC(=O)Nc2ccc(OCCN3CCOCC3)c3ccccc23)cc1 [doramapimod]
Outline: as §1

[9] = compound: Cc1ccc(NC(=O)c2ccc(CN3CC[C@H](N(C)C)C3)c(C(F)(F)F)c2)cc1Nc1nccc(-c2cncnc2)n1 [bafetinib]
Outline: as §1

[10] = compound: Cc1cccc(CC(=O)N2CCc3c2ccc(-c2cn(C)c4ncnc(N)c24)c3F)n1
Outline: as §1

Target	log2 fold change [1]	log2 fold change [2]	log2 fold change [3]	log2 fold change [4]	log2 fold change [5]	log2 fold change [6]	log2 fold change [7]	log2 fold change [8]	log2 fold change [9]	log2 fold change [10]
CAVIN1 (UniProt Q6NZI2)	inactive: -0.011	inactive: 0.009	inactive: 0.022	inactive: 0.006	inactive: -0.018	inactive: -0.062	inactive: -0.038	inactive: 0.003	inactive: -0.004	inactive: -0.024
CCZ1 (UniProt P86791)	inactive: 0.012	inactive: -0.019	inactive: 0.014	inactive: -0.033	inactive: 0.033	inactive: 0.014	inactive: 0.002	inactive: -0.004	inactive: -0.011	inactive: 0.042
CD59 isoform 2 (UniProt P13987)	inactive: -0.037	inactive: 0.039	inactive: 0.03	inactive: -0.026	inactive: 0.053	inactive: 0.054	inactive: 0.011	inactive: 0.002	inactive: 0.127	inactive: 0.023
CCDC47 (UniProt Q96A33)	inactive: -0.05	inactive: 0.005	inactive: -0.016	inactive: -0.012	inactive: -0.03	inactive: -0.145	inactive: -0.009	inactive: -0.018	inactive: -0.031	inactive: 0.049
CBX3 (UniProt Q13185)	inactive: 0.001	inactive: 0.008	inactive: 0.008	inactive: -0.178	inactive: 0.032	inactive: 0.03	inactive: -0.023	inactive: -0.08	inactive: 0.157	inactive: 0.092
CD47 (UniProt Q08722)	inactive: -0.001	inactive: 0.036	inactive: 0.004	inactive: -0.123	inactive: 0.016	inactive: 0.064	inactive: -0.008	inactive: 0.001	inactive: -0.056	inactive: 0.023
CCT4 (UniProt P50991)	inactive: -0.023	inactive: 0	inactive: 0.017	inactive: -0.021	inactive: 0.048	inactive: -0.029	inactive: 0.015	inactive: 0.036	inactive: -0.006	inactive: -0.028
CASC4 (UniProt Q6P4E1)	inactive: -0.038	inactive: 0.069	inactive: 0.019	inactive: -0.088	inactive: 0.051	inactive: 0.016	inactive: 0.067	inactive: 0.057	inactive: -0.045	inactive: 0.02
CCDC82 (UniProt Q8N4S0)	inactive: 0.078	inactive: -0.031	inactive: -0.035	inactive: -0.029	inactive: -0.005	inactive: -0.054	inactive: -0.019	inactive: -0.072	inactive: 0.053	inactive: 0.005
CARNMT1 (UniProt Q8N4J0)	inactive: 0.01	inactive: -0.029	inactive: -0.131	active: -0.354	inactive: 0.018	inactive: 0.038	inactive: -0.04	inactive: 0.01	inactive: -0.078	inactive: 0.181
CCDC134 (UniProt Q9H6E4)	inactive: -0.024	inactive: -0.02	inactive: 0.094	inactive: 0.023	inactive: 0.015	inactive: 0	inactive: -0.004	inactive: -0.038	inactive: 0.04	inactive: 0.003
CBLL1 (UniProt Q75N03)	inactive: -0.027	–	inactive: -0.04	inactive: 0.038	inactive: 0.042	inactive: -0.082	inactive: 0.05	inactive: 0.036	–	inactive: -0.004
CCDC186 (UniProt Q7Z3E2)	inactive: -0.056	inactive: -0.004	inactive: 0.006	active: 0.295	inactive: 0.022	inactive: -0.061	inactive: 0	inactive: -0.01	inactive: -0.047	inactive: -0.064
CASP7 isoform 3 (UniProt P55210)	inactive: -0.055	inactive: 0.037	inactive: -0.07	–	inactive: 0.009	–	inactive: 0.049	inactive: 0.029	inactive: -0.054	–
CD80 (UniProt P33681)	inactive: 0.122	–	inactive: -0.007	active: 0.395	inactive: 0.104	inactive: -0.086	inactive: 0.088	inactive: -0.008	–	inactive: 0.016
CC2D1A (UniProt Q6P1N0)	inactive: 0.038	inactive: -0.002	inactive: -0.057	inactive: -0.006	inactive: -0.003	inactive: 0.01	inactive: 0.053	inactive: 0.058	inactive: -0.049	inactive: -0.01

Shown in markdown: part of the list above.

| Target | log2 fold change [1] | log2 fold change [2] | log2 fold change [3] | log2 fold change [4] | log2 fold change [5] | log2 fold change [6] | log2 fold change [7] | log2 fold change [8] | log2 fold change [9] | log2 fold change [10] |
| --- | --- | --- | --- | --- | --- | --- | --- | --- | --- | --- |
| CCDC47 (UniProt Q96A33) | inactive: -0.05 | inactive: 0.005 | inactive: -0.016 | inactive: -0.012 | inactive: -0.03 | inactive: -0.145 | inactive: -0.009 | inactive: -0.018 | inactive: -0.031 | inactive: 0.049 |
| CBX3 (UniProt Q13185) | inactive: 0.001 | inactive: 0.008 | inactive: 0.008 | inactive: -0.178 | inactive: 0.032 | inactive: 0.03 | inactive: -0.023 | inactive: -0.08 | inactive: 0.157 | inactive: 0.092 |

(list continues)

Target	log2 fold change [1]	log2 fold change [2]	log2 fold change [3]	log2 fold change [4]	log2 fold change [5]	log2 fold change [6]	log2 fold change [7]	log2 fold change [8]	log2 fold change [9]	log2 fold change [10]
CD33 (UniProt P20138)	inactive: 0.014	–	inactive: 0.316	inactive: 0.048	inactive: -0.028	inactive: -0.024	–	inactive: 0.036	–	inactive: 0.075
CAV2 (UniProt P51636)	inactive: -0.089	–	inactive: 0.04	inactive: -0.05	inactive: 0.05	inactive: 0.084	–	inactive: -0.063	–	inactive: 0.248
CCNL1 (UniProt Q9UK58)	inactive: -0.002	–	inactive: -0.062	inactive: -0.075	–	inactive: 0.065	inactive: 0.047	inactive: -0.024	–	inactive: 0.053
CCND3 (UniProt P30281)	–	inactive: -0.01	inactive: -0.083	inactive: -0.175	inactive: 0.015	inactive: -0.022	inactive: 0.073	inactive: 0.101	inactive: 0.003	inactive: 0.096
CCDC57 (UniProt Q2TAC2)	inactive: -0.083	inactive: -0.04	–	inactive: -0.1	inactive: -0.008	inactive: 0.117	inactive: 0.118	–	inactive: -0.086	inactive: 0.002
CCND2 (UniProt P30279)	inactive: 0.082	inactive: -0.074	inactive: 0.024	–	inactive: 0.059	–	–	inactive: -0.023	inactive: 0	–
CD55 isoform 7 (UniProt P08174)	inactive: -0.028	inactive: -0.01	inactive: -0.018	inactive: -0.067	inactive: 0.087	inactive: 0.081	inactive: -0.023	inactive: 0.05	inactive: -0.012	inactive: 0.059
CBWD2 (UniProt Q8IUF1)	inactive: 0.027	inactive: 0.009	inactive: -0.02	inactive: 0.064	inactive: -0.018	inactive: -0.23	inactive: -0.031	inactive: 0.018	inactive: -0.053	inactive: 0
CCNT1 (UniProt O60563)	inactive: 0.004	inactive: 0.113	inactive: 0.031	inactive: 0.001	inactive: -0.002	inactive: -0.037	inactive: -0.006	inactive: 0.007	inactive: -0.047	inactive: 0.045
CCS (UniProt O14618)	inactive: -0.028	inactive: 0.052	inactive: 0.025	inactive: -0.064	inactive: -0.009	inactive: 0.153	inactive: 0.031	inactive: -0.078	inactive: -0.021	inactive: 0.02
CCDC50 (UniProt Q8IVM0)	inactive: -0.082	inactive: 0.071	inactive: 0.04	–	–	–	inactive: -0.137	inactive: -0.033	inactive: -0.375	–
CARHSP1 (UniProt H3BNU9)	inactive: -0.101	inactive: -0.186	–	inactive: 0.16	–	inactive: -0.329	–	–	inactive: 0	inactive: 0.341
CD58 (UniProt P19256)	inactive: 0.004	inactive: -0.123	inactive: 0.074	inactive: -0.056	inactive: 0.068	inactive: -0.055	inactive: 0.027	inactive: 0.007	inactive: -0.149	inactive: 0.043
CD53 (UniProt P19397)	inactive: -0.001	inactive: -0.176	inactive: -0.048	inactive: -0.169	–	inactive: 0.097	inactive: 0.043	inactive: 0.085	inactive: -0.009	inactive: 0.012
CCDC9, A0A2R8Y4Z8	inactive: 0.215	inactive: 0.08	inactive: 0.236	–	inactive: -0.044	–	–	inactive: -0.195	inactive: -0.154	–
